Source: the supplement of paper PMC7411640
Structures can show the parent of a compound that is named as a salt. Some of the results follow. Single values are uncertain here, since repeats match poorly.

Tested on: MDA-MB-468
Assay: phospho-S6 immunofluorescence (DAPI-normalised), per-plate z-score; higher = higher phospho-S6 signal (less pathway suppression)
Settings: 24 h
Procedure: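 GPCR-targeted compound library (MedChemExpress HY-L006) tested on MDA-MB-468 PTEN-null TNBC cells in 384-well plates at 0.1, 1 or 10 uM, combined with vehicle, GDC0941 450 nM or lapatinib 1 uM, for 24 h. Phospho-S6 (S240/244) immunofluorescence normalised to DAPI and expressed as a per-plate z-score; values are the mean of biological triplicates.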

[1] = compound 0.1 µM, co-treatment: GDC0941 450 nM
[2] = compound 0.1 µM, co-treatment: lapatinib 1 uM
[3] = compound 0.1 µM, co-treatment: vehicle
[4] = compound 1 µM, co-treatment: GDC0941 450 nM
[5] = compound 1 µM, co-treatment: lapatinib 1 uM
[6] = compound 1 µM, co-treatment: vehicle
[7] = compound 10 µM, co-treatment: GDC0941 450 nM
[8] = compound 10 µM, co-treatment: lapatinib 1 uM
[9] = compound 10 µM, co-treatment: vehicle

| SMILES | phospho-S6 immunofluorescence (z-score) [1] | phospho-S6 immunofluorescence (z-score) [2] | phospho-S6 immunofluorescence (z-score) [3] | phospho-S6 immunofluorescence (z-score) [4] | phospho-S6 immunofluorescence (z-score) [5] | phospho-S6 immunofluorescence (z-score) [6] | phospho-S6 immunofluorescence (z-score) [7] | phospho-S6 immunofluorescence (z-score) [8] | phospho-S6 immunofluorescence (z-score) [9] |
| --- | --- | --- | --- | --- | --- | --- | --- | --- | --- |
| CC(C)C[C@H](NC(=O)CNC(=O)[C@H](Cc1ccc(O)cc1)NC(=O)[C@H](CO)NC(=O)[C@H](Cc1c[nH]c2ccccc12)NC(=O)[C@H](Cc1cnc[nH]1)NC(=O)[C@@H]1CCC(=O)N1)C(=O)N[C@@H](CCCNC(=N)N)C(=O)N1CCC[C@H]1C(=O)NCC(N)=O [Gonadorelin (acetate)] | -0.29 | -0.4 | 0.73 | -0.03 | -0.42 | -1.55 | -0.45 | 0.57 | 0.07 |
| CC1(C)C(=O)N(CCN2CCC(C(=O)c3ccc(F)cc3)CC2)c2ccccc21 | -0.02 | -0.2 | -0.1 | 0.58 | -0.23 | -0.7 |  |  |  |
| CCN1CCCC1CNC(=O)c1cc(S(N)(=O)=O)ccc1OC (stereo unspecified) [Sulpiride] | 0.42 | 0.12 | -0.09 | -0.07 | -0.7 | -0.85 | -0.13 | 0.19 | 0.05 |
| CC(C)[C@H](N=C(NS(=O)(=O)c1ccc(Cl)cc1)N1C[C@H](c2ccccc2)C(c2ccc(Cl)cc2)=N1)C(N)=O | 1.3 | 1.53 | 0.09 | 0.29 | -0.5 | 0.73 |  |  |  |
| COc1cc(/C=C/C(=O)NCCn2c(C(F)(F)F)cc3ccccc32)cc(OC)c1OC | -0.24 | -0.06 | 0.1 | -1.27 | -0.49 | 0.43 |  |  |  |
| CCNC(=O)[C@@H]1CCCN1C(=O)[C@H](CCCNC(=N)N)NC(=O)[C@H](CC(C)C)NC(=O)[C@@H](CC(C)C)NC(=O)[C@H](Cc1ccc(O)cc1)NC(=O)[C@H](CO)NC(=O)[C@H](Cc1c[nH]c2ccccc12)NC(=O)[C@H](Cc1c[nH]cn1)NC(=O)[C@@H]1CCC(=O)N1 [Leuprolide (Acetate)] | 0.17 | -0.36 | -0.88 | 1.23 | -0.5 | 0.35 |  |  |  |
| Cc1ccc(NC(=S)NNc2c([N+](=O)[O-])cc(C(F)(F)F)cc2[N+](=O)[O-])cc1Cl | -0.75 | -0.45 | -1.38 | -0.02 | -0.74 | -0.95 |  |  |  |
| OCc1ccc(-c2nn(Cc3ccccc3)c3ccccc23)o1 [Lificiguat] | -0.71 | -0.47 | -0.86 | 3.17 | 3.87 | -2.74 | 3.23 | 2.82 | 0.54 |
| CNc1nc(NCc2ccc(NS(C)(=O)=O)cc2Cl)cc(-c2ccccn2)n1 | 2.06 | -0.36 | -0.86 | 2.16 | 0.64 | 0.09 |  |  |  |
| Cc1nc2n(c(=O)c1CCN1CCC(c3noc4cc(F)ccc34)CC1)CCCC2O (stereo unspecified) [Paliperidone] | 1.94 | 0.87 | 0.4 | 0.58 | 0.4 | 0.39 | 0.37 | 0.36 | 0.5 |
| CN(C)N(C)C(=O)[C@@]1(Cc2ccccc2)CCCN(C(=O)[C@@H](Cc2c[nH]c3ccccc23)NC(=O)C(C)(C)N)C1 [Anamorelin (hydrochloride)] | -1.59 | -0.11 | -0.99 | -0.7 | -0.12 | -1.45 |  |  |  |
| O=C(COc1ccc(C(=O)c2ccccc2)cc1)NC1CCN(Cc2ccccc2)CC1 [AdipoRon] | 0.51 | 0.26 | -0.25 | -1.48 | 0.25 | 0.3 |  |  |  |
| NC(=O)NC1NC(=O)NC1=O (stereo unspecified) [Allantoin] | 0.75 | 1.63 | 0.18 | 0.34 | 0.72 | 0.51 |  |  |  |
| CCc1c(C)[nH]c2c1C(=O)C(CN1CCOCC1)CC2 (stereo unspecified) [Molindone (hydrochloride)] | 1.37 | 1.1 | -1.56 | -0.23 | 1.5 | -0.47 |  |  |  |

3 consecutive compounds from above, for reference:

| SMILES | phospho-S6 immunofluorescence (z-score) [1] | phospho-S6 immunofluorescence (z-score) [2] | phospho-S6 immunofluorescence (z-score) [3] | phospho-S6 immunofluorescence (z-score) [4] | phospho-S6 immunofluorescence (z-score) [5] | phospho-S6 immunofluorescence (z-score) [6] | phospho-S6 immunofluorescence (z-score) [7] | phospho-S6 immunofluorescence (z-score) [8] | phospho-S6 immunofluorescence (z-score) [9] |
| --- | --- | --- | --- | --- | --- | --- | --- | --- | --- |
| OCc1ccc(-c2nn(Cc3ccccc3)c3ccccc23)o1 [Lificiguat] | -0.71 | -0.47 | -0.86 | 3.17 | 3.87 | -2.74 | 3.23 | 2.82 | 0.54 |
| CNc1nc(NCc2ccc(NS(C)(=O)=O)cc2Cl)cc(-c2ccccn2)n1 | 2.06 | -0.36 | -0.86 | 2.16 | 0.64 | 0.09 |  |  |  |
| Cc1nc2n(c(=O)c1CCN1CCC(c3noc4cc(F)ccc34)CC1)CCCC2O (stereo unspecified) [Paliperidone] | 1.94 | 0.87 | 0.4 | 0.58 | 0.4 | 0.39 | 0.37 | 0.36 | 0.5 |
